Assay results as given in PMC10741529.
No constants are given. Whether binding was seen depends on the method and setting. In cells and extracts the contact can be indirect. Binding can be weak; no strength is given.

Amino acid sequences for entries named in this document (tags omitted). A change or cut given only in a name is not applied to a line headed by its entry.
UniProt Q8WYQ3: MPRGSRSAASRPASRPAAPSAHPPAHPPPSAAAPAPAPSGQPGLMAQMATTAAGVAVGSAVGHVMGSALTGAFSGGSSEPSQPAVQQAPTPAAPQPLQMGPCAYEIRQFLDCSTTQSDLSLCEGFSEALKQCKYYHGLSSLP
UniProt Q99MQ3: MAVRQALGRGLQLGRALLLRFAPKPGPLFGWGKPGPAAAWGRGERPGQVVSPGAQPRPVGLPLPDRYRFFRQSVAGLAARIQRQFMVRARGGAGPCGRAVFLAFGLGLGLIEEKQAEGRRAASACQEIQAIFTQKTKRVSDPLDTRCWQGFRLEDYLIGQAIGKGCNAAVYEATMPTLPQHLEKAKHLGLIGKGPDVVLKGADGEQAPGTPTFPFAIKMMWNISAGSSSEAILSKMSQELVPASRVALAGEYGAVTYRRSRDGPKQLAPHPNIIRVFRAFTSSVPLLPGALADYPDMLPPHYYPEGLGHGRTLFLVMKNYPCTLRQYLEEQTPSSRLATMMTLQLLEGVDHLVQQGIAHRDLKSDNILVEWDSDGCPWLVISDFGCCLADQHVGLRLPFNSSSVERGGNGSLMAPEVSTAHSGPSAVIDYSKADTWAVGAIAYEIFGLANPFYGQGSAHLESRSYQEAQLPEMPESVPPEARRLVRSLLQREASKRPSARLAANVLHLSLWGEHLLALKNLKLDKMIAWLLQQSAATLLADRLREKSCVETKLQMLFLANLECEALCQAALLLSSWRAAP

B1: presenilin-associated rhomboid-like protein (PARL), endogenous in HT22 cells (enzyme, UniProt Q5XJY4 51-377)
chain: FRKAPRKVEPRRSDTGSSGEAYKRSALIPPLEETVFYPSPYPIRTLVKPFFFTIGFTGCAFGSAAIWQYESLKSRVQSYFDGIKADWLDSIRPQKEGNLRKEINKWWNSLSDGQRTVTGIIAANALVFCLWRVPSLQRTMIRYFTSNPASKVLCSPMLLSTFSHFSLFHMAANMYVLWSFSSSIVNILGQEQFVAVYLSAGVISNFVSYVCKVATGRYGPSLGASGAIMTVLAAVCTKIPEGRLAIIFLPVFTFTAGNALKAIIAMDTAGMILGWKFFDHAAHLGGALFGIWYITYGHELIWKNREPLVKIWHEIRTNGPKKGGGSK

Legend:
[1] = biological target: Flag-CHCHD10^WT (wild-type coiled-coil-helix-coiled-coil-helix domain-containing 10) (human) (UniProt Q8WYQ3); assay: proximity ligation; HT22 cells transfected with Flag-CHCHD10 variants, after CCCP (1 mM, 12 h); fixed cells, anti-PINK1 + M2 Flag antibodies, Duolink probes
[2] = biological target: Flag-CHCHD10^R15L (human) (UniProt Q8WYQ3); assay: proximity ligation; HT22 cells transfected with Flag-CHCHD10 variants, with and without CCCP (1 mM, 12 h); fixed cells, anti-PARL + M2 Flag antibodies, Duolink probes
[3] = biological target: Flag-CHCHD10^S59L (human) (UniProt Q8WYQ3); assay: as above
[4] = biological target: Flag-CHCHD10^WT (wild-type coiled-coil-helix-coiled-coil-helix domain-containing 10) (human) (UniProt Q8WYQ3); assay: as above

binding [1]	binding [2]	binding [3]	binding [4]	Molecule
binds	–	–	–	PTEN-induced kinase 1 (PINK1), endogenous in HT22 cells (from UniProt Q99MQ3 78-580) (enzyme)
–	binds	binds	binds	B1
